Results taken from PMC8898360.
These are yes or no findings as the source states them, for the method shown. Binding seen in cells or lysates may run through a third protein. Some entries that bind do so weakly or less than the wild type.

Chains of the proteins cited; added tags and fusions are not shown. Residues count along the entry.
UniProt P16066, residues 33-1061: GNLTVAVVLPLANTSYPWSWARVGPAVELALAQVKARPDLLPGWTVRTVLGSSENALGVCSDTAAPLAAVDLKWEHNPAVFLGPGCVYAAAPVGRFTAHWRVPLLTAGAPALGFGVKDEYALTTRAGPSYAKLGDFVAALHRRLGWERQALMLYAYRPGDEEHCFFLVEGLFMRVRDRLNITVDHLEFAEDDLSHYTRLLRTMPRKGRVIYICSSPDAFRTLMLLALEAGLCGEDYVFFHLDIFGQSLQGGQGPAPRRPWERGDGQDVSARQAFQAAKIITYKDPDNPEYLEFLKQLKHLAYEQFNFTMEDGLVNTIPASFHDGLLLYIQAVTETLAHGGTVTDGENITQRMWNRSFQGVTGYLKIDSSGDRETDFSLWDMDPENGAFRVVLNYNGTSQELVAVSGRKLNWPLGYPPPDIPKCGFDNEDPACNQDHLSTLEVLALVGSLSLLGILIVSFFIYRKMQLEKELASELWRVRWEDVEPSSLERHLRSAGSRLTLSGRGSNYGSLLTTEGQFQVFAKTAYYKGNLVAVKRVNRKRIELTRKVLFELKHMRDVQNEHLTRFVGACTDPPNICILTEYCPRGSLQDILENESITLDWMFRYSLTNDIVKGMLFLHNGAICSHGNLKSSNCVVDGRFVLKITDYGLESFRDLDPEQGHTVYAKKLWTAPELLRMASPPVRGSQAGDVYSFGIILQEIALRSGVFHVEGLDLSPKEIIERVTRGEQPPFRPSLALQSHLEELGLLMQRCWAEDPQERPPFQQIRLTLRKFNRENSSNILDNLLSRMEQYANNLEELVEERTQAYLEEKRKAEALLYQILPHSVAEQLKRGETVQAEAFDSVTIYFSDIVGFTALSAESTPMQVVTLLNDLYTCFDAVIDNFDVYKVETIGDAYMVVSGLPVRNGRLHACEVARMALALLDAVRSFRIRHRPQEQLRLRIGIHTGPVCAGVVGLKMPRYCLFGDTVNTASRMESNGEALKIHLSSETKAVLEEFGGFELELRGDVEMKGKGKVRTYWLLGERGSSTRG
UniProt Q8N884: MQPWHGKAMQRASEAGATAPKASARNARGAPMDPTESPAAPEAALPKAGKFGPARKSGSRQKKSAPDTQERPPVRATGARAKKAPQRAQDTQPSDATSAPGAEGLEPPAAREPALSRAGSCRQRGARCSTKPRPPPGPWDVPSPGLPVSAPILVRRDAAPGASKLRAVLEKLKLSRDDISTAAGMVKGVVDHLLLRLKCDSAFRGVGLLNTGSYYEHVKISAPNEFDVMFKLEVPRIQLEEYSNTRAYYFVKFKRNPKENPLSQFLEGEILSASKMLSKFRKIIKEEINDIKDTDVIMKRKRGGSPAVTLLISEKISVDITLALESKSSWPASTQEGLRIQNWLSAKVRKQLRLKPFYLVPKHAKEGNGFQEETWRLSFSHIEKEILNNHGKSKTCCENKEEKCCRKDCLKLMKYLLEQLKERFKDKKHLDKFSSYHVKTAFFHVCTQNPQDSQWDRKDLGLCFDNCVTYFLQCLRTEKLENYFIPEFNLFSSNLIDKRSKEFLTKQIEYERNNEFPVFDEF

Target: ANP receptor NPR-A (human (endogenous in HT-29)) (UniProt P16066)
Assay: co-IP; HT-29 cell lysates incubated with anti-NPR-A antibody at 4°C overnight, Protein A/G agarose resin, western blotting for NPR-A, cGAS and GAPDH; cells treated with DMXAA and/or ANP for 24 h beforehand

binding: binds
Substance: cyclic GMP-AMP synthase (cGAS) (from UniProt Q8N884 1-522)
